{"source": "patent US20100162416A1", "about": "“Multi-stage stem cell carcinogenesis” (StemLifeLine, Inc., priority 2008, published 2010)", "format_in_all_cases": "cell-based, human", "key": {"[1]": {"system": "selected clones (05, 07, 11) and parental hESC", "assay": "Drug resistance profile: proliferation rate by BrdU incorporation in the presence of chemotherapeutic reagents", "details": "clone 05 vs control hESC", "procedure": "Drug resistance profiles of selected clones were determined for the common classes of chemotherapeutic reagents. Proliferation rate of the clones and parental hESC was measured in the presence of multiple concentrations of 10 different drugs using BrdU incorporation assay. Each drug has been tested in at least three independent experiments, each condition being done in triplicate. The approximate half maximal inhibitory concentration (IC50) was determined for each of the drugs tested. IC50 represents the concentration of a drug that is required for 50% inhibition in vitro.\nResponse of the selected clones to the following chemotherapeutic reagents was examined. The chemotherapeutic agents were chosen for their wide-spread use and variety with respect to their modes of action: 5-fluorouracil (5-FU), doxorubicin (Doxo), irinotecan (SN-38), taxol, etoposide (VP-16), carmustine (BCNU), methotrexate (MTX), cytarabine (AraC), temozolomide (MTIC) and chlorambucil (CLB). […] Proliferation rate was measured by BrdU incorporation at the end of the drug treatment. All samples were made in triplicates in each of the three independent experiments performed."}, "[2]": {"system": "clones 07-B1 and 11-B19", "assay": "Drug resistance of BCNU-selected high-resistance clones", "details": "clones selected by increasing concentrations of BCNU; data not shown", "procedure": "Two clones, 07 and 11 were exposed to increasing concentrations of BCNU. The surviving cells were cloned and a number of high-resistance clones two of which, 07-B1 and 11-B19 were isolated. Their drug resistance to BCNU and MTIC was tested."}, "[3]": {"system": "isogenic cloned cell lines derived from one hESC line", "assay": "Resistance of the panel of isogenic cloned cell lines to common chemotherapeutic agents", "details": "panel of isogenic cloned cell lines with CSC phenotype", "text": "Using one hESC line, a panel of isogenic cloned cell lines has already been generated and banked. […] High resolution karyotype (G-banding), proliferation rate (BrdU incorporation and doubling time), growth factor dependence and expression of CSC/SC markers such as Oct-4, Nanog, CD133, ABCG2, ABCG5 etc) have been examined and the stability of the expressed phenotypes was confirmed."}}, "note": "At least one compound was matched to its structure with a doubt left.", "data": [{"smiles": "Cn1nnc2c(C(N)=O)ncn2c1=O", "note": "[MTIC, temozolomide]", "values": [{"measurement": "sensitivity of clone 05 relative to control cells", "setting": "[1]", "result": "more sensitive"}, {"measurement": "resistance of clones 07-B1 and 11-B19 relative to parental clones", "setting": "[2]", "result": "higher resistance than the parental clones"}, {"measurement": "resistance of transformed cell lines to the agent", "setting": "[3]", "result": "increased resistance"}]}]}
